Assay results: PMC9835285
These are yes or no findings as the source states them, for the method shown. Binding can be weak; no strength is given.

The chains behind the UniProt entries cited, without tags or fusion partners.
UniProt Q9SVD7: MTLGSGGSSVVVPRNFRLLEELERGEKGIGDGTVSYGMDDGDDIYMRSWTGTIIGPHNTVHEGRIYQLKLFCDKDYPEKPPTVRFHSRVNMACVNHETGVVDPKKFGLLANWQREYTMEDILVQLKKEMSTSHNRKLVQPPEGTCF

Experiments:
Assay in all cases: two-hybrid; yeast PJ69-4A co-transformed with Gal4BD-BnUbc13s (pGBT9E) and Gal4AD-AtUev1D (pGAD424E); growth on SD-Trp-Leu-His plus 3-AT and on SD-Trp-Leu-Ade, 3 days at 30 C
[1] = target: Gal4BD-BnUbc13C (Brassica napus)
[2] = target: Gal4BD-BnUbc13G (Brassica napus)
[3] = target: Gal4BD-BnUbc13A (Brassica napus)

Measured: binding

Gal4AD-AtUev1D (from UniProt Q9SVD7 1-146)
binds: all assays above
